PubChem BioAssay AID686937, Drosophila RNAi Screening Center, 2013
Screen: 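Genes in the fly needed for secretion of protein constitutively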 (primary screen). System: Drosophila S2 cells expressing secreted horseradish peroxidase. Reagents: long dsRNA against Drosophila genes. Duration: about 5.5 days (5 days dsRNA, then 12 h reporter induction). Challenge: reporter expression induced after 5 days of dsRNA, read 12 h later; inducer not stated. Detection: 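After 5 days of dsRNA and 12 h of reporter induction, medium peroxidase read by chemiluminescence and scored as per-plate z-score; higher values mean more reporter released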. Direction: z-score: higher = more reporter secreted into medium.
In all, the deposit lists about 23,000 reagents; shown is a random part of those with a known target gene and a result. 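Reduced-secretion tags in replicate 1 do not always agree with the z-scores; no criterion for assigning the tags was given.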 Names joined by + are all predicted targets of the reagent. Not all columns of the deposit are shown. No sequences are given here. Not stated in the record: the amount of reagent.

The first 7 entries as a preview:
no.	target	amplicon	z-score, replicate 1
1	spict	DRSC02157	0.21
2	alphaSnap	DRSC11285	-6.26
3	DCTN1-p150	DRSC11175	0.26
4	Amy-d	DRSC05919	0.26
5	CG34214	DRSC04490	0.19
6	Lkb1	DRSC16481	0.65
7	CG1631	DRSC20535	0.36

The list itself, from the start:
no.	target	amplicon	z-score, replicate 1
1	spict	DRSC02157	0.21
2	alphaSnap	DRSC11285	-6.26
3	DCTN1-p150	DRSC11175	0.26
4	Amy-d	DRSC05919	0.26
5	CG34214	DRSC04490	0.19
6	Lkb1	DRSC16481	0.65
7	CG1631	DRSC20535	0.36
8	Tudor-SN	DRSC08581	0.02
9	garz	DRSC07193	-3.68
10	Mal-A6	DRSC07233	0.23
11	vari	DRSC03202	0.21
12	Phb1	DRSC03563	-0.08
13	Etl1	DRSC02911	0.39
14	CG43095	DRSC13573	-0.03
15	CG34461	DRSC10767	0.56
16	CG11037	DRSC11631	0.14
17	OS9	DRSC02700	0.38
18	CG11664	DRSC18650	0.18
19	net	DRSC00309	0.32
20	CG15128	DRSC06550	0.16
21	CG32066	DRSC10652	0.41
22	CG32066	DRSC10653	0.44
23	CG11035	DRSC14287	0.35
24	CG42361	DRSC04391	0.21
25	Tbcb	DRSC06067	0.48
26	DAAM	DRSC18479	-1.54
27	CG8541	DRSC10989	0.07
28	brk	DRSC18745	-1
29	Gr58b	DRSC04140	0.15
30	ACXC	DRSC00846	0.74
31	HLH54F	DRSC07438	-0.08
32	CG17996 + Tsen2	DRSC02650	0.28
33	CG31661	DRSC00296	0.41
34	otp	DRSC04050	0.37
35	otp	DRSC04707	0.26
36	PVRAP	DRSC09966	0.28
37	PVRAP	DRSC10577	0.43
38	CG18249	DRSC15318	0.19
39	CG32985	DRSC02634	0.27
40	Rrp42	DRSC07161	-0.7
41	CG12237	DRSC19449	-3.48
42	CG12237	DRSC22256	-0.14
43	CG5103	DRSC10481	0.3
44	CG4554	DRSC04473	-0.15
45	CG6793	DRSC10714	0.54
46	CG31743 + CG34313	DRSC02781	0.13
47	CG31743 + CG34313	DRSC02782	0.21
48	PIG-H	DRSC14856	0.51
49	porin	DRSC03594	0.51
50	Pkcdelta	DRSC19356	-0.14
51	Pkcdelta	DRSC19399	0.1
52	CG11030	DRSC02120	-0.51
53	CG6220	DRSC06969	0.49
54	CG4408	DRSC15574	0.02
55	CG10512	DRSC11615	0.34
56	sNPF	DRSC02309	0.36
57	repo	DRSC16369	0.04
58	TMEM216 + CG11760	DRSC14375	0.39
59	CSN5	DRSC16592	0.29
60	CSN5	DRSC22381	-0.45
61	Tdc1	DRSC04942	0.25
62	CG7747	DRSC07038	0.26
63	CG40486	DRSC20619	0.27
64	CG12320	DRSC14498	0.35
65	Svil	DRSC07981	-0.2
66	Svil	DRSC08296	0.01
67	Svil	DRSC08332	0.21
68	Svil	DRSC08333	-2.02
69	Svil	DRSC08494	0.22
70	CG13359	DRSC18539	0.24
71	CG10347	DRSC19352	0.39
72	Cyp304a1	DRSC16623	0.47
73	CG34345	DRSC02126	0.3
74	CG9130 + CG9133	DRSC08624	-0.24
75	CG9130 + CG9133	DRSC08625	-1.6
76	CG9130 + CG9133	DRSC22010	-0.53
77	Septin2	DRSC16855	0.3
78	Khc-73	DRSC07449	0.49
79	CG30116	DRSC05935	0.21
80	CG30116	DRSC06685	0.35
81	shf	DRSC18283	0.24
82	wdb	DRSC14163	0.06
83	Edg78E	DRSC11863	0.3
84	Polr2I	DRSC16832	-6.68
85	Pgm2a	DRSC07068	0.25
86	CG8172	DRSC07089	0.23
87	CG8172	DRSC22113	0.39
88	Rme-8	DRSC07054	-0.02
89	CG18537	DRSC06764	0.46
90	snoRNA:Me28S-C3420b + RpS11	DRSC07396	0.27
91	Nup98-96	DRSC14209	-3.28
92	Nup98-96	DRSC14210	-1.63
93	SdhBL	DRSC20039	0.35
94	Ufd1	DRSC10607	-1.16
95	CG14369	DRSC14831	0.47
96	Herc4	DRSC08631	0.47
97	CG10559	DRSC14255	-0.07
98	mRpL50	DRSC11015	0.41
99	CG2100	DRSC12303	0.43
100	Cul6	DRSC09830	0.25
101	CG5757	DRSC06951	0.34
102	Gpb5	DRSC21241	0.64
103	CG5880	DRSC15906	0.49
104	spz5	DRSC08645	0.1
